Experimental data: patent publication US10017767B2, “Targets in multiple myeloma and other disorders” (FONDAZIONE CENTRO SAN RAFFAELE, priority 2012, dated 2018)
At least one compound was matched to its structure with a doubt left.

Test system: ABL1
Assay: ABL1 cytoplasmic/nuclear localization by subcellular fractionation and Western blot in MM cell lines
Type: cell-based
Conditions: 10 μM for 2 hs; MM.1S, UTMC-2 and JJN-3
Description: MM cells were harvested and lysed using lysis buffer: 50 mMTris-HCl (pH 7.4), 150 mM NaCl, 1% NP-40, 5 mM EDTA, 5 mM NaF, 2 mM Na3VO4, 1 mM PMSF, 5 μg/mL leupeptine, and 5 μg/mL aprotinin. Nuclear extracts were prepared using Nuclear Extraction Kit (Panomics). Cell lysates were subjected to sodium dodecyl sulfate-polyacrylamide gel electrophoresis SDS-PAGE, transferred to nitrocellulose membranes, and immunoblotted with different antibodies: ATM, phospho-ATM (Ser1981), ATR, phospho-ATR (Ser428), CHK2, phospho-CHK2 (Thr68), CHK1, phospho-CHK1 (Ser296), p21, p53, phospho-p53 (ser127), STK4, LATS1, phospho-LATS1 (Ser909), phospho-ABL1 (Thr735), cleaved caspase 3, cleaved PARP, histone H3, SAPK/JNK, phospho-SAPK/JNK (Thr183/Tyr185), GM130, GAPDH, and α-tubulin (Cell Signaling); STK4, Nuclear Matrix Protein p84 (Abeam), p73 (BD), phospho-H2A.X (Ser139) (Millipore); as well as ABL1, BAX, Puma, Noxa, actin and nucleolin (Santa Cruz Biotechnology).

With `Oc1c2ccccc2c2c3c(cccc13)N=N2` [SP600125] as the molecule, how does the “nuclear and cytosolic ABL1 levels” value read?
Its value is “reduced nuclear ABL1 and concomitantly robustly increased cytosolic ABL1”.
